We go through one substance from paper PMC6030205.

The chains behind the UniProt entries cited, without tags or fusion partners. Where a name states a change or a piece, a line headed by the entry shows the natural chain unless it says otherwise.
UniProt O48716: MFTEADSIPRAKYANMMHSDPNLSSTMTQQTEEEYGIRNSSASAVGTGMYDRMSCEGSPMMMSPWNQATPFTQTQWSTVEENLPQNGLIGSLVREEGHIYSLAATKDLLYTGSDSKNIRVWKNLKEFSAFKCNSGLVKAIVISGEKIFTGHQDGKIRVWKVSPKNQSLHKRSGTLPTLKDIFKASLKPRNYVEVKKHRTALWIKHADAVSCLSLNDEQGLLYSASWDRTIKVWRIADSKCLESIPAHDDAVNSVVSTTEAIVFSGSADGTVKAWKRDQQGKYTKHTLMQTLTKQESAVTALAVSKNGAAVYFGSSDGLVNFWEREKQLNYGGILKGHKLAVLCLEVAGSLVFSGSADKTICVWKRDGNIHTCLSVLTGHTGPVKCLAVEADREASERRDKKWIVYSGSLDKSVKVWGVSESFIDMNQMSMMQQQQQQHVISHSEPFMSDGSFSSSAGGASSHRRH
UniProt Q9C9X5: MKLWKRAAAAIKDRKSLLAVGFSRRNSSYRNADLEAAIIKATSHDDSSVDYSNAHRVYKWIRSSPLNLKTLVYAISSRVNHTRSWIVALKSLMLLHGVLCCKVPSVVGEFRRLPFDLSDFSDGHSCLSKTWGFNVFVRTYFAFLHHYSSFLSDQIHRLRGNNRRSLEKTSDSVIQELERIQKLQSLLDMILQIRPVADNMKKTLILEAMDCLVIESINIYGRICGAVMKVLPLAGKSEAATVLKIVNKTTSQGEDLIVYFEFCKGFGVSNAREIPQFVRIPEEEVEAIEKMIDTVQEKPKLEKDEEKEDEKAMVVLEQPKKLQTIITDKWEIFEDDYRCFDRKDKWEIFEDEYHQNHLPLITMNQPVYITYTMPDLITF

The assay addresses MBP-REN4 (Arabidopsis) (UniProt O48716). The experiment in a line: pull-down; MBP-REN4 on amylose beads; EAP1-RFP from transgenic Arabidopsis pollen tubes; MBP and amylose beads as negative control; only the target purified.

These are yes or no findings as the source states them, for the method shown. In cells and extracts the contact can be indirect. Binding can be weak; no strength is given.

Consider EAP1-RFP (from UniProt Q9C9X5), for which the binding entry is “binds”.
